Results deposited as PubChem BioAssay AID504791 (Drosophila RNAi Screening Center, 2011).
The screen tested about 23,000 reagents; shown is an unselected part of those that have a named target and a result. Over the whole deposit, 199 (0.86%) were called active. 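Plate-scaled ratios behind the calls are not deposited; printed light signals are raw; many rows marked increased or decreased are still called inactive.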 Entries without a mark were called inactive. Not given: the direction of the score.

Aim: 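Factors in Argonaute-based small RNA production and activity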 (primary screen)
System: Drosophila S2-derived reporter cells
Knock-down reagent: long dsRNA against Drosophila genes, about 150-250 ng dsRNA per well (siRNA assay); about 80-120 ng (miRNA assay)
Timing: about 5 days (siRNA assay); about 4 days (miRNA assay)
Treatment: copper sulfate induction of reporters: 25 µM (siRNA assay); 200 mM stated (miRNA assay), 1-2 days before reading
Read-out: 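Per-well ratio of Renilla over firefly light, expressed relative to that plate's average ratio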
Active means: 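First-pass picks had plate-scaled ratios over 1.5 for the siRNA assay, over 1.6 for the miRNA assay, or under 0.6; two distinct dsRNAs had to score alike on retest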

no.	gene	amplicon	miRNA reporter change	stable assay Renilla, run 1 (luminescence)	stable assay firefly, run 1 (luminescence)
1	kuk (kugelkern)	DRSC15730		7871	3.17e5
2	Cad88C (Cadherin 88C)	DRSC15486		8115	5.09e5
3	Lip1 (Lipase 1)	DRSC03364		7384	4.80e5
4	CalpC (Calpain C)	DRSC19873		5327	3.99e5
5	CG32249	DRSC08101		3471	2.89e5
6	CG32249	DRSC08177		6011	5.10e5
7	CG32249	DRSC22444		5199	5.39e5
8	alpha-Est4 (alpha-Esterase-4)	DRSC12616		6963	3.84e5
9	bsh (brain-specific homeobox)	DRSC03498		3039	3.57e5
10	HDAC3 (Histone deacetylase 3)	DRSC12352		8222	3.91e5
11	CG7191	DRSC03022		8370	6.35e5
12	Acp65Aa (Adult cuticle protein 65Aa)	DRSC09663		6883	4.92e5
13	Nse4 (Non-SMC element 4)	DRSC02239		5003	4.04e5
14	Hug (Hugin)	DRSC16969		6878	4.42e5
15	Blimp-1	DRSC10496		6086	3.86e5
16	cag	DRSC07587		6998	4.26e5
17	Nnp-1	DRSC02165		8084	5.71e5
18	SLC5A11 (Sodium/solute co-transporter-like 5A11)	DRSC03088		1.42e5	4.06e5
19	alpha-Man-IIb (alpha-Mannosidase class II b)	DRSC16898		9132	4.17e5
20	SPARC (Secreted protein, acidic, cysteine-rich)	DRSC14123		5750	4.32e5
21	CG13436	DRSC06396		6562	4.55e5
22	CG4829	DRSC19920		8377	4.66e5

4 entries from above, set out differently.
{"gene":"alpha-Est4 (alpha-Esterase-4)","amplicon":"DRSC12616","stable assay Renilla, run 1 (luminescence)":6963,"stable assay firefly, run 1 (luminescence)":3.84e5}
{"gene":"bsh (brain-specific homeobox)","amplicon":"DRSC03498","stable assay Renilla, run 1 (luminescence)":3039,"stable assay firefly, run 1 (luminescence)":3.57e5}
{"gene":"HDAC3 (Histone deacetylase 3)","amplicon":"DRSC12352","stable assay Renilla, run 1 (luminescence)":8222,"stable assay firefly, run 1 (luminescence)":3.91e5}
{"gene":"CG7191","amplicon":"DRSC03022","stable assay Renilla, run 1 (luminescence)":8370,"stable assay firefly, run 1 (luminescence)":6.35e5}

Next results follow:
no.	gene	amplicon	miRNA reporter change	stable assay Renilla, run 1 (luminescence)	stable assay firefly, run 1 (luminescence)
23	bowl	DRSC00805		43032	1.40e5
24	Nfs1 (Nfs1 cysteine desulfurase)	DRSC02154		7459	3.48e5
25	CG1463	DRSC19603		7131	2.81e5
26	Fpgs1 (Folylpolyglutamate synthase 1)	DRSC19857		5576	5.72e5
27	LManI (Lysosomal alpha-mannosidase I)	DRSC02838		6646	3.57e5
28	CG34012	DRSC09089		5938	3.73e5
29	Nulp1 (Nuclear localized protein 1)	DRSC09677		7116	3.20e5
30	CG5347	DRSC19942		6670	4.30e5
31	Mdr65 (Multi drug resistance 65)	DRSC11220		4994	4.23e5
32	CG30082	DRSC22945		5932	5.50e5
33	Cpr23B (Cuticular protein 23B)	DRSC00555	reporter ratio raised past the hit cutoff	7549	4.80e5
34	Cpr23B (Cuticular protein 23B)	DRSC23504	reporter ratio raised past the hit cutoff		
